The list shows a part of the results.

Chains of the proteins cited; added tags and fusions are not shown.
UniProt Q0JBA9, entry or part of it: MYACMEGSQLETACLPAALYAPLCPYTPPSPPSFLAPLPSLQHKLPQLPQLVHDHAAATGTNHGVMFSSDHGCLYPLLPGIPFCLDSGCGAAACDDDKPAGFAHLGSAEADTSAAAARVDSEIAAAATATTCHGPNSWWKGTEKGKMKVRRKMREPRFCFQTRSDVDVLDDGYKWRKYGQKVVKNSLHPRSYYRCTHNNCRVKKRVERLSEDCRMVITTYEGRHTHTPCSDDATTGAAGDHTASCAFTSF

In this assay the target is OsWRKY34 (Oryza sativa, UniProt Q0JBA9 1-250). The assay is described as follows: protein-binding microarray (RPBM); PBS, 2% BSA, 51.3 ng/ul salmon testes DNA, 50 uM zinc acetate, 200 nM TF, 25 C, 1 h; high values mean tight binding. The settings on record: protein: recombinant; tags: N-terminal polyhistidine and DsRed monomer fusion (pET32a); label: CyDye5-dUTP incorporated in the synthesized complementary strand; 3' TTTTT single-stranded linker to array surface; dsDNA, one strand shown. Summed up:
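Using Ni–NTA, transcription factors fused N-terminally to polyhistidine and DsRed were purified after expression in E. coli BL21-CodonPlus. These were incubated at 200 nM with a blocked, double-stranded custom Agilent array for 1 h at 25 °C in a buffer containing 50 µM zinc acetate, and the array was washed. The binding signal is per-feature fluorescence intensity (arbitrary units) on an Axon 4000B scanner.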
As for “AGGATGGATGGGTGTGCTGTATATACTTGTTGTAATTAAGCGGAGTCACCTAGTGCAG”, the binding signal is 9800 fluorescence intensity (a.u.). In the case of “CCTGCATCCGTTAACAACACTTACCAAAATTTAGTCGCACCGGAGTCACCTAGTGCAG” it was 8780 fluorescence intensity (a.u.); in that of “AAAGCCTGTCCTTTTCCAAGATTTTCATGCCCAAACTCAACGGAGTCACCTAGTGCAG”, 8540 fluorescence intensity (a.u.); in that of “TGCTCGAAATTGAGTGTGTTCTATCTACTGTAGGGTTGTGCGGAGTCACCTAGTGCAG”, 8220 fluorescence intensity (a.u.). In the case of “TTACAATTGTATTCCTGTCAGAATCCTGTGTTTTTCCTATCGGAGTCACCTAGTGCAG” it was 9430 fluorescence intensity (a.u.); in that of “AGATATACCGTTGTTGCATTTCACCTTAAAATATTTCCAACGGAGTCACCTAGTGCAG”, 8550 fluorescence intensity (a.u.); in that of “CCAGAAATTCTCTTATCCTTCTTTTCTTTCTCTTTTTCTTCGGAGTCACCTAGTGCAG”, 10600 fluorescence intensity (a.u.). In the case of “CTTCCGGGAGCGCTTCCTGTTGTGTACTTGTGTGATCACACGGAGTCACCTAGTGCAG” it was 8880 fluorescence intensity (a.u.); in that of “AACCTTGTCCCTTTTCCCCGCAAATCCTTGCCGCCTTTTGCGGAGTCACCTAGTGCAG”, 9010 fluorescence intensity (a.u.); in that of “GTTTTTTTCGGTCCACATTTGATGCTCCATACATGTGTCTCGGAGTCACCTAGTGCAG”, 8730 fluorescence intensity (a.u.). For the sequence “TTCGATCATTTTGCTATATAACTTTGTTTCTATAATTTGACGGAGTCACCTAGTGCAG”, the binding signal is 8030 fluorescence intensity (a.u.). In the case of “GTCCATCTGCGTCTCTCCTAATCTCATCCGTCCGCTGTACCGGAGTCACCTAGTGCAG”, the binding signal was 12200 fluorescence intensity (a.u.). Consider “CTCTCTATCATTCTCCGTTGCCACGCTAATCGCTCAGCGCCGGAGTCACCTAGTGCAG”, for which the binding signal is 9330 fluorescence intensity (a.u.). In the case of “CACGCTGCACTGCACCGCTTTACGCCATCTCGCCAATTTTCGGAGTCACCTAGTGCAG” it was 10300 fluorescence intensity (a.u.); in that of “CCACTGCTTCGTCATCGTCTACGCCCTCCTCATCGTCCACCGGAGTCACCTAGTGCAG”, 9440 fluorescence intensity (a.u.); in that of “CCACCCATGCATGCAATGCAGCCTCATCGCTTACGTCACCCGGAGTCACCTAGTGCAG”, 11700 fluorescence intensity (a.u.). Turning to “GCTCCGGCTCTTTCTCTCTTTCTCTCTCTCCACCGCAAGCCGGAGTCACCTAGTGCAG”, the binding signal was 8260 fluorescence intensity (a.u.). In the case of “CACTCGATCCTCGCCATTACCATCAGGCCCACACACATAACGGAGTCACCTAGTGCAG” it was 13600 fluorescence intensity (a.u.); in that of “ACCCTCCACCCGCCACCGCCACCGCCGCCTTCGCCGCCGCCGGAGTCACCTAGTGCAG”, 9250 fluorescence intensity (a.u.). For the sequence “CCGCTCTCTGCTAGCTTCCACACACCAAGTTCATCAGCCACGGAGTCACCTAGTGCAG”, the binding signal is 10200 fluorescence intensity (a.u.).

Take “ATTTCCTTTTCTTTGCGTGAGCTCATTGCTCTTTATTTGGCGGAGTCACCTAGTGCAG”: the binding signal was 8670 fluorescence intensity (a.u.). In the case of “TCGGGTTTTAGGGTTTTCTTCCTCTTCTCTTGCATCCTCCCGGAGTCACCTAGTGCAG” it was 8630 fluorescence intensity (a.u.); in that of “GATAATGAATCATTGTTGTGTCCATGTATATTACATCATGCGGAGTCACCTAGTGCAG”, 9670 fluorescence intensity (a.u.).

On to “GCTTATACTTATCAGTCAAAATTTAAATTTCCATCCTTAACGGAGTCACCTAGTGCAG”, for which the binding signal was 9130 fluorescence intensity (a.u.). In the case of “TCCGCCTTCTGAGTCGCCTCAGTACTCCCATCCGATACGACGGAGTCACCTAGTGCAG” it was 8330 fluorescence intensity (a.u.). “ACGCGCACCACTTCGGTCGCCCCGCCCGGCTGCACTGCATCGGAGTCACCTAGTGCAG”: the binding signal was 10200 fluorescence intensity (a.u.). In the case of “TTTTTGTGGCTCTTATATTTCACTTTTTCATTCATAGGATCGGAGTCACCTAGTGCAG” it was 11800 fluorescence intensity (a.u.); in that of “ATCTTCAAAACAACAGTCCCTTTTCTTATATCGTAATTTCCGGAGTCACCTAGTGCAG”, 8370 fluorescence intensity (a.u.); in that of “CTCAGTCTTCTTTTTTCTTCTTCTTTGTTTGACGGAACAACGGAGTCACCTAGTGCAG”, 9260 fluorescence intensity (a.u.). Take “GGAAGTCAACTCTTTGCACCGTGATACGAATTATGCTACCCGGAGTCACCTAGTGCAG”: the binding signal was 8240 fluorescence intensity (a.u.).

“TCCATCACCAAGATGCTAAACTTTTCCCGTCGCCGTTACCCGGAGTCACCTAGTGCAG”: the binding signal was 8930 fluorescence intensity (a.u.). Regarding “GATATGACACTTTAATCCTGTACCTTTTCAGAAATCAGAACGGAGTCACCTAGTGCAG”, the binding signal was 8030 fluorescence intensity (a.u.). For the sequence “AAACTTATGGGTATGTGAGGAATTTTCTTGTCCTTGTACTCGGAGTCACCTAGTGCAG”, the binding signal was 9210 fluorescence intensity (a.u.). As to “TGTTCTGCCAGCCAATCCAGATCGCCCTCGTATGCACGCTCGGAGTCACCTAGTGCAG”, the binding signal was 8890 fluorescence intensity (a.u.). Take “CCTATAGCGTCTCTCCCGAAGGCTCGAGACACCACACCTCCGGAGTCACCTAGTGCAG”: the binding signal was 8320 fluorescence intensity (a.u.).

“TATCCTCCACCGGTCTAGGCACTTTCTGTATCTATATATACGGAGTCACCTAGTGCAG”: the binding signal was 8840 fluorescence intensity (a.u.).

As to “TATCCCGTATATAGCGCCCCTACGTCGGCCGGCCCGACGACGGAGTCACCTAGTGCAG”, the binding signal is 8680 fluorescence intensity (a.u.). In the case of “AACCAGGCTCATCTCCATCTCCTTCCCCGCGCGAGAGAGACGGAGTCACCTAGTGCAG” it was 8380 fluorescence intensity (a.u.); in that of “TCTCTGAAGCAACACCATATAAAACCTTGCCACACTTTTACGGAGTCACCTAGTGCAG”, 9300 fluorescence intensity (a.u.). In the case of “AGTTATGTTTTGATCCTGCCACATAGTTTGAGTTTTGTGACGGAGTCACCTAGTGCAG” it was 9470 fluorescence intensity (a.u.); in that of “CCTTGTTTTTTTGTGGATGGCTACTTGCAATGCTATACTTCGGAGTCACCTAGTGCAG”, 10200 fluorescence intensity (a.u.). In the case of “TCATTTCTTATTTTGTAGGTCAAAATGGTTTCCCAAGTTCCGGAGTCACCTAGTGCAG” it was 8440 fluorescence intensity (a.u.).

Values taken from publication PMC7819943, “Rice protein-binding microarrays: a tool to detect cis-acting elements near promoter regions in rice”.
